Assay [1] concerns the target Ribosomal protein S6 kinase 1 (S6K1), endogenous in DLD-1 cells (human (endogenous in DLD-1)) (UniProt P23443). As to the kind of experiment: co-IP; endogenous proteins in DLD-1 cells; immunoprecipitation with S6K1 (a) or β-catenin (b) antibodies, partner detected by immunoblot.
For assay [2], the target named is Flag-β-catenin (human) (UniProt P35222). As to the kind of experiment: co-IP; 293T cells transiently transfected with Flag-β-catenin and Myc-S6K1; immunoprecipitation with Flag antibody, immunoblot with anti-Flag and anti-Myc. A general note: In western blotting, separated proteins are transferred to a membrane and probed.
For assay [3], the target named is β-catenin, endogenous in DLD-1 cells (human (endogenous in DLD-1)) (UniProt P35222). As to the kind of experiment: co-IP; endogenous proteins in DLD-1 cells; immunoprecipitation with S6K1 (a) or β-catenin (b) antibodies, partner detected by immunoblot.
The target of assay [4] is Ribosomal protein S6 kinase 1 (S6K1), endogenous in 293T cells (human (endogenous in HEK293T)) (UniProt P23443). As to the kind of experiment: co-IP; cytoplasmic and nuclear extracts from 293T cells treated or untreated with LiCl (25 mM, 8 h); immunoprecipitation with S6K1 antibody.
Assay [5] deals with Flag-tagged wild-type S6K1 (S6K1-WT) (human) (UniProt P23443). Put plainly: co-IP; 293T cells expressing Flag-tagged WT, CA and DN forms of S6K1, treated with LiCl (25 mM) for 8 h; immunoprecipitation with Flag antibody.
For assay [6], the target named is recombinant GST-β-catenin (human) (UniProt P35222). As to the kind of experiment: pull-down; in vitro GST pulldown: recombinant GST or recombinant GST-β-catenin with 293T cell extracts; eluted S6K1 detected with anti-S6K1; only the target purified.

Amino acid sequences for entries named in this document (tags omitted).
UniProt P23443: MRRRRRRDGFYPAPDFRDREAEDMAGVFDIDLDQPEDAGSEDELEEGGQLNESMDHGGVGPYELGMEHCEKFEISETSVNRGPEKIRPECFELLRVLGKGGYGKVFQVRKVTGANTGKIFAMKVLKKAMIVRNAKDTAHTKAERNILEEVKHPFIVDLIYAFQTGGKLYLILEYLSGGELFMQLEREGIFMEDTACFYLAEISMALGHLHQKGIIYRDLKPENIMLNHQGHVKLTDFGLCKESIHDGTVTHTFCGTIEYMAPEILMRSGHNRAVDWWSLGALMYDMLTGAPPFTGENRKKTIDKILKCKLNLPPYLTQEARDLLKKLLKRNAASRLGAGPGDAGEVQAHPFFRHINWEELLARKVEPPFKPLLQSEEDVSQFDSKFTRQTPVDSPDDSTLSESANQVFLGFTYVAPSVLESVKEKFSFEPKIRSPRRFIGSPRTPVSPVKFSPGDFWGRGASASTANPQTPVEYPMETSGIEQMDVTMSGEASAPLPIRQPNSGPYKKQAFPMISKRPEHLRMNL
UniProt P35222: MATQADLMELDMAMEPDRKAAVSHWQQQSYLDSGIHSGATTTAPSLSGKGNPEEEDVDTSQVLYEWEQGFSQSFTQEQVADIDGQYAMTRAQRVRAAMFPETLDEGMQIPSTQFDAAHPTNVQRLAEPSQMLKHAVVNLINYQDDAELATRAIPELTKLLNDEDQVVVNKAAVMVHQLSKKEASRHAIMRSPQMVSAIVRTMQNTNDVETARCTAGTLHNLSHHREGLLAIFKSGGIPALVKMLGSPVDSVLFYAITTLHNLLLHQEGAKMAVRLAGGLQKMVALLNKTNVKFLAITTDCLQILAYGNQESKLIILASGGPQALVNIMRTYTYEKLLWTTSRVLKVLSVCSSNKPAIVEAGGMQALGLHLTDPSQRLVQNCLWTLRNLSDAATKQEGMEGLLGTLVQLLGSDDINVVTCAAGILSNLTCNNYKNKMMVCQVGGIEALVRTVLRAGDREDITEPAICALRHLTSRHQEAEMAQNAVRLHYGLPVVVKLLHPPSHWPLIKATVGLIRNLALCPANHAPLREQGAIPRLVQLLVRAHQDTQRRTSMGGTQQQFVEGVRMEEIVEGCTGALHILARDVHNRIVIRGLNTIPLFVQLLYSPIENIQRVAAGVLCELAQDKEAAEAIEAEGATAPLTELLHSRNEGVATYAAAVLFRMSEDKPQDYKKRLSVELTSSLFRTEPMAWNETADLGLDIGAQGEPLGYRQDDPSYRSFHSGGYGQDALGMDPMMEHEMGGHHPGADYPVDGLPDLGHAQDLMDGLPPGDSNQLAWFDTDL

These are yes or no findings as the source states them, for the method shown. In cells and extracts the contact can be indirect. Some binding calls cover weakened binding; strength is not graded here.

On to “β-catenin, endogenous in DLD-1 cells (from UniProt P35222 1-781)”, for which, in assay [1], the binding result is on record as “binds”.

Take Myc-S6K1 (from UniProt P23443 1-525): the binding entry in assay [2] is listed as “binds”. “Ribosomal protein S6 kinase 1 (S6K1), endogenous in DLD-1 cells (from UniProt P23443 1-525)”: in assay [3], the binding result is “binds”. As to “β-catenin, endogenous in 293T cells (from UniProt P35222 1-781)”, the binding entry in assay [4] and in assay [5] was “binds” each time. For the substance “Ribosomal protein S6 kinase 1 (S6K1), endogenous in 293T cells (from UniProt P23443 1-525)”, the binding entry in assay [6] was “binds”.

Values taken from PMC9785994.
